This is an account of results in patent US9670217B2, “Process for preparing chlorins and their pharmaceutical uses” (UNIVERSIDADE DE COIMBRA, priority 2008, dated 2017).

“And” between values parts separate entries of the source, which are not always exact repeats. Equal values may be shown once.

A short description of data set [1]: Fluorescence detection limit in human serum. As to conditions: excitation 514 nm.
Data set [2] is described as follows: EPR spin trapping of photogenerated reactive oxygen species.

In the case of `CCNS(=O)(=O)c1ccc(Cl)c(-c2c3nc(c(-c4c(Cl)ccc(S(=O)(=O)NCC)c4Cl)c4ccc([nH]4)c(-c4c(Cl)ccc(S(=O)(=O)NCC)c4Cl)c4nc(c(-c5c(Cl)ccc(S(=O)(=O)NCC)c5Cl)c5ccc2[nH]5)CC4)CC3)c1Cl` [Luzitin-Cl2Et, 5,10,15,20-tetrakis(2,6-dichloro-3-N-ethylsulfamoylphenyl)bacteriochlorin], the fluorescence detection limit in data set [1] is 0.17 nM and 0.2 ng/g.
In the case of `O=S(=O)(O)c1ccc(Cl)c(-c2c3nc(c(-c4cc(S(=O)(=O)O)ccc4Cl)c4ccc([nH]4)c(-c4cc(S(=O)(=O)O)ccc4Cl)c4nc(c(-c5cc(S(=O)(=O)O)ccc5Cl)c5ccc2[nH]5)CC4)CC3)c1` [Luzitin-Cl, 5,10,15,20-tetrakis(2-chloro-5-sulfonylphenyl)bacteriochlorin], the “EPR detection of BMPO-hydroxyl radical adduct” value in data set [2] (30-80 μM sensitizer, 40 mM BMPO, air-saturated aqueous solution, laser 4, 8, 16 minutes) was “detection of a BMPO adduct which is that formed between BMPO and the hydroxyl radical”. Also, in data set [2] (DMPO in DMSO, air and light), the “EPR detection of DMPO-superoxide adduct” value is “detected the DMPO-superoxide adduct in the presence of air and light”.
